Source: PubChem BioAssay AID488965 (Broad Institute, 2010)
The campaign covered roughly 340,000 compounds. About 210 (0.062%) were called active. The shares of active, inactive and inconclusive entries below differ from those in the screen. No stated cut-off is given here; in the data, active means inhibition above about 30% (passing the limit was not always enough); inconclusive means no clear call, values can overlap the other calls.

System: PvdQ acylase [Pseudomonas aeruginosa LESB58]
Assay: P. aeruginosa PvdQ acylase inhibitors, primary screen, biochemical, fluorescence, plate reader and imaging, single point (AID 488965);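 further: 0% = vehicle neutral wells and 100% = reference inhibitor wells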
Conditions: purified PvdQ acylase, at 10 µM, active compounds read high

| SMILES | inhibition |
| --- | --- |
| COCC1CCCCN1C(=O)c1ccc(OC2CCN(CCc3ccccc3)CC2)cc1 (configuration not stated) | inactive: -3.24% |
| O=C(CCc1c[nH]c2ccccc12)N/N=C/c1ccc2c(c1)OCO2 | inconclusive: 34.8% |
| Cc1ccc(O)c(NC(=S)NC(=O)/C=C/c2ccco2)c1 | inconclusive: 31.7% |
| O=C(N/N=C/c1cccnc1)C1CC1(c1ccccc1)c1ccccc1 (configuration not stated) | inconclusive: 35.4% |
| Cc1cc(NC(=O)c2ccc3c(c2)OCCO3)no1 | inconclusive: 31.9% |
| C[C@]12CCC[C@H](O1)[C@H]([C@@H](O)c1ccccc1)O2 | inconclusive: 34.6% |
| Cc1[nH]nc2c1C(c1ccco1)C(C#N)=C(N)O2 (configuration not stated) | inconclusive: 31% |
| CS(=O)(=O)c1ccc(Cl)c(NC(=O)COC(=O)c2ccc(F)cc2Cl)c1 | inconclusive: 31.8% |
| CC(NC(=O)C1CCCN(C(=O)c2ccc(Cl)cc2)C1)c1cccc(C(F)(F)F)c1 (configuration not stated) | inconclusive: 30.3% |
| CCOC(=O)c1ccc(N2Cc3ccccc3C2)cc1O | active: 63.5% |
| CN1/C(=C\C=C2/SC(=S)NC2=O)C(C)(C)c2ccccc21 | inactive: 22.4% |
| C=CCOC(=O)c1ccc(-n2cnc(C)n2)nc1 | active: 70.7% |
| COc1ccc(-c2ccc(OC(=O)NC3CCS(=O)(=O)C3)cc2)cc1 (configuration not stated) | inconclusive: 33.1% |
| Cc1cc(C(=O)OCC(=O)Nc2cc(C)on2)c2ccccc2n1 | inconclusive: 34.8% |
| O=C(CCCN1C(=O)/C(=C/c2ccccc2)SC1=S)Nc1ccccc1O | inconclusive: 35.7% |
| O=C1/C(=C/c2ccc([N+](=O)[O-])cc2)Oc2cc(O)ccc21 | active: 69.3% |
| COc1cccc(CN(C)CC(=O)NNC(=O)c2ccc(Cl)cc2)c1 | inconclusive: 34.1% |
| COC(=O)c1ccccc1NC(=O)CN1CCC(NC(=O)c2ccc(C)cc2)CC1 | inconclusive: 33.8% |
| CC(C)[N+]1=C2C=CC=CC=C2SC12C([N+](=O)[O-])=CC(=[N+]([O-])[O-])C=C2[N+](=O)[O-] (configuration not stated) | inconclusive: 33.7% |
| Cn1cccc1C(=O)OCc1cc(-c2ccco2)on1 | inconclusive: 35.1% |
| CC1CCCCC1NS(=O)(=O)c1ccc(S(=O)(=O)N2CCCC2)cc1 (configuration not stated) | inconclusive: 30.7% |
| CC(C)CCN(CCC(C)C)C(CO)(CO)CO | inconclusive: 32.6% |
| NC(=O)c1oc2ccccc2c1NC(=O)Cc1ccccc1 | inconclusive: 30.2% |

| SMILES | inhibition |
| --- | --- |
| O=C(NC1CC1)c1cc2cc3ccccc3nc2s1 | inconclusive: 32% |
| COc1ccc(CC(=O)Nc2cc3oc4ccccc4c3cc2OC)cc1 | inactive: -9.86% |
| Clc1ccc(Nc2ncnc3ccc(Br)cc23)cc1 | inconclusive: 31.7% |
| Cc1ccc2[nH]c(=O)c3cc(C(=O)NC(C)C)sc3c2c1 | inconclusive: 32.3% |
| O=C(Cc1cccc(NC(=O)C2CCN(C(=O)C3CCCCC3)CC2)c1)Nc1cccc(C(=O)N2CCCCC2)c1 | inconclusive: 30.3% |
| CC[N+](CC)(CC)C/C=C/CN1CCCCC1 | inconclusive: 30.8% |
| CN(CC1CCCN(CCc2ccc(F)cc2)C1)C(=O)CCC(F)(F)F (configuration not stated) | inconclusive: 36.3% |
| Cc1ccc(OCCn2cc(/C(N)=N/O)c3ccccc32)cc1C | inconclusive: 57.8% |
| CCOc1ccc(NC(=O)c2cnsn2)cc1 | inconclusive: 40.3% |
| CC1=C(C(=O)Nc2ccccc2)C(c2coc3ccccc3c2=O)C2=C(CCCC2=O)N1 (configuration not stated) | inconclusive: 30.4% |
| O=C1C2C(C(=O)N1Cc1ccco1)C1C=CC2C12CC2 (configuration not stated) | active: 86.6% |
| O=[N+]([O-])c1cccnc1Sc1ccc(Cl)cc1 | active: 47.2% |
| O=C1N(c2ccccc2)C[C@@H]2C[C@@H](c3cc4ccccc4o3)N3CCC[C@@]123 | active: 41.9% |
| N#Cc1cc2c(ccc3ccccc32)oc1=O | inactive: 6.17% |
| COC(=O)c1cc(/C=C/c2ccccc2)on1 | active: 54.1% |
| Cc1cc(Oc2nc3c(C)cccn3c(=O)c2/C=C(\C#N)S(=O)(=O)c2ccc(Cl)cc2)ccc1Cl | inconclusive: 33.4% |
| CC(=O)c1ccc(NC(=S)N2CCCC(CO)C2)cc1 (configuration not stated) | inconclusive: 38.6% |
| CC(=O)c1cn(C(=O)c2ccc(Cl)cc2)c2ccccc12 | inactive: 7.91% |
| O=[N+]([O-])c1nn(-c2ccc(Cl)cc2)n(O)c1=NCc1ccccc1 | active: 40.8% |
| CCOCC(=O)Nc1nc2ccc(C)cc2s1 | active: 32.4% |
| Cc1cc(C)cc(N2C(=O)CC(Sc3ccccc3C(=O)O)C2=O)c1 (configuration not stated) | inconclusive: 30.8% |
| COC(=O)c1ccc(OC(=O)c2cccs2)cc1 | active: 55% |
| Cc1ccc(C2C(C(=O)c3cccs3)=C(O)C(=O)N2c2ccc(S(N)(=O)=O)cc2)cc1 (configuration not stated) | inactive: -12.9% |

| SMILES | inhibition |
| --- | --- |
| CCOc1ccccc1NC(=S)N1CCC(NC(=O)NC23CC4CC(CC(C4)C2)C3)CC1 | inconclusive: 33.1% |
| O=[N+]([O-])c1ccccc1S(=O)(=O)Nc1cccc(-c2ccc3nncn3n2)c1 | inactive: -14.7% |
| Cc1cc(C)n(-c2cccc(CN(C)Cc3nc(-c4cnccn4)no3)c2)n1 | inactive: -12.7% |
| Nc1ccc(OCc2ccccc2)cc1[N+](=O)[O-] | active: 36.5% |
| Cn1cccc1C(C#N)c1cccc(F)c1C#N (configuration not stated) | active: 60.5% |
| N#Cc1cc([N+](=O)[O-])ccc1Oc1cccc(/C=N/NC(=O)c2cccc(Cl)c2)c1 | active: 63% |
| O=CNC1(c2ccccc2)CCCCC1 | active: 94.1% |
| Fc1ccc(OCc2cc(-c3ccccc3)no2)cc1 | inactive: -0.542% |
| O=C(O)c1ccc(N=Nc2c(O)ccc3ncccc23)cc1 | inconclusive: 37.9% |
| Clc1cccc(CNCCCSc2ncccn2)c1 | inconclusive: 34% |
| C/C(CCC1CC(C)OC1=O)=N/Nc1nc(-c2ccccc2)cs1 (configuration not stated) | inconclusive: 37% |
| CS(=O)(=O)N(CC(=O)Nc1ccccc1C(=O)N1CCOCC1)c1ccccc1 | inconclusive: 34.6% |
| COc1ccc(-c2ccc3oc(-c4ccsc4)cc3c2)cc1 | inactive: -1.83% |
| N#C/C(=C\c1ccco1)c1nc2ccccc2s1 | inconclusive: 36.6% |
| COc1ccccc1C1CCN(C(=O)C2CCCCC2)CC1 | inconclusive: 38% |
| CN1C(=O)/C(=C/c2ccc(O)c([N+](=O)[O-])c2)N(C)C1=S | inconclusive: 34.4% |
| Cc1cc(=O)n2nc(N3CCCC(C(=O)N4CCOCC4)C3)sc2n1 (configuration not stated) | inconclusive: 31.1% |
| CCOC(=O)c1[nH]c2c(c1C)C(=O)CC(c1ccco1)C2 (configuration not stated) | inconclusive: 31.5% |
| COc1ccc(-c2cc3cccc(OC)c3oc2=O)cc1 | inconclusive: 33.1% |
| CN(c1ncnc(N)c1[N+](=O)[O-])C1CCCCC1 | active: 37.9% |
| Cc1ncc(CO)c(/C=N/NC(=S)Nc2ccc(F)cc2)c1O | inactive: -11% |
| Cc1ccccc1OCCSc1nnc(-c2ccncc2)n1C | inconclusive: 30.9% |
| Cc1cc(C(=O)Nc2ccc(Br)cc2)cs1 | inactive: -10% |

Copied from the entries so far for reference:

| SMILES | inhibition |
| --- | --- |
| N#Cc1cc([N+](=O)[O-])ccc1Oc1cccc(/C=N/NC(=O)c2cccc(Cl)c2)c1 | active: 63% |
| O=CNC1(c2ccccc2)CCCCC1 | active: 94.1% |

Next entries

| SMILES | inhibition |
| --- | --- |
| COc1ccc(/C=C/C(=O)NC(=S)Nc2ccc(C(=O)O)cc2)cc1 | inactive: -5.35% |
| O=C(CSC1=NS(=O)(=O)c2ccccc2N1)NCCc1ccccc1 | inactive: -10.9% |
| Cc1ccc2nc(-c3ccc(O)cc3)oc2c1 | active: 31.8% |
| CC1CC(Nc2ccccc2)c2ccccc2N1C(=O)c1ccco1 (configuration not stated) | inconclusive: 30.6% |
| Cc1ccccc1-c1cc(C(=O)NCc2cccs2)nn1CC1CC(c2cccc([N+](=O)[O-])c2)=NO1 (configuration not stated) | inconclusive: 31% |
| Cc1nc2ccc(NC(=O)c3cc(S(=O)(=O)N4CCOCC4)ccc3C)cc2s1 | inactive: -15.7% |
| O=C1NC(=O)/C(=C/c2cccc([N+](=O)[O-])c2)N1 | inactive: 6.43% |
| N#C/C(C(=S)Nc1ccccc1)=C1/NN=C(N2CCOCC2)N1c1ccccc1 | inconclusive: 31.7% |
| Cc1nn(S(=O)(=O)c2ccccc2)c(C)c1S(=O)(=O)N1CCOCC1 | inconclusive: 33.4% |
| CCc1ccc(NC(=O)CSc2nc3ccsc3c(=O)n2CCCCCC(=O)O)cc1 | inactive: -0.406% |
| NC(=O)NC(=O)C(Nc1ccc(N2CCCCC2)cc1)c1ccccc1 (configuration not stated) | inactive: -9.3% |
| CCOc1ccc(-n2cccc2C=O)cc1 | inconclusive: 32.6% |
| COCCCNC(=O)CC1C[C@H](C(=O)N2CCCCC2)[C@@]2(CCc3ccccc3)c3[nH]c4ccc(OC)cc4c3CCN2C1=O (some centres not stated) | inconclusive: 30% |
| CC(=O)c1ccc2c3c(cc(C)c2c1)CCCC3 | inconclusive: 32.6% |
| Cc1ccc(C(=O)C2Oc3ccccc3C3CC(c4ccc(C)cc4)=NN23)cc1 (configuration not stated) | inactive: -13.6% |
| Cc1ccc(CCNC(=O)CCS(=O)(=O)c2ccc(Br)cc2)cc1 | active: 30.5% |
| CCn1c(SCC(=O)N/N=C/c2ccc(C)o2)nnc1-c1ccc(C(C)(C)C)cc1 | inconclusive: 34.2% |
| C[C@H](CO)N1C[C@H](C)[C@@H](CN(C)C(=O)Nc2ccc(C(F)(F)F)cc2)Oc2ccc(NC(=O)Nc3ccccc3)cc2C1=O | inactive: -2.31% |
| C=CCC1S/C(=N/N=C/c2cccs2)NC1=O (configuration not stated) | inconclusive: 32.1% |
| COc1ccccc1Nc1nn2c(=O)c3ccc(C(=O)N4CCCC(C)C4)cc3nc2s1 (configuration not stated) | inactive: -23.6% |
| COc1ccc(Nc2nnc(SCc3cc([N+](=O)[O-])cc4c3OCOC4)s2)cc1 | inactive: -0.595% |
| C=CCn1c(=O)/c(=C/c2ccc(C)o2)s/c1=C(/C#N)C(=O)c1ccccc1 | inconclusive: 35.2% |
| Cc1cc(NC(=O)c2cc([N+](=O)[O-])cc([N+](=O)[O-])c2C)no1 | active: 88.2% |

Already shown: an excerpt of the list.

| SMILES | inhibition |
| --- | --- |
| O=CNC1(c2ccccc2)CCCCC1 | active: 94.1% |
| Fc1ccc(OCc2cc(-c3ccccc3)no2)cc1 | inactive: -0.542% |
| O=C(O)c1ccc(N=Nc2c(O)ccc3ncccc23)cc1 | inconclusive: 37.9% |
| Clc1cccc(CNCCCSc2ncccn2)c1 | inconclusive: 34% |
| C/C(CCC1CC(C)OC1=O)=N/Nc1nc(-c2ccccc2)cs1 (configuration not stated) | inconclusive: 37% |
| CS(=O)(=O)N(CC(=O)Nc1ccccc1C(=O)N1CCOCC1)c1ccccc1 | inconclusive: 34.6% |
| COc1ccc(-c2ccc3oc(-c4ccsc4)cc3c2)cc1 | inactive: -1.83% |
| N#C/C(=C\c1ccco1)c1nc2ccccc2s1 | inconclusive: 36.6% |
| COc1ccccc1C1CCN(C(=O)C2CCCCC2)CC1 | inconclusive: 38% |
| CN1C(=O)/C(=C/c2ccc(O)c([N+](=O)[O-])c2)N(C)C1=S | inconclusive: 34.4% |
| Cc1cc(=O)n2nc(N3CCCC(C(=O)N4CCOCC4)C3)sc2n1 (configuration not stated) | inconclusive: 31.1% |
| CCOC(=O)c1[nH]c2c(c1C)C(=O)CC(c1ccco1)C2 (configuration not stated) | inconclusive: 31.5% |
| COc1ccc(-c2cc3cccc(OC)c3oc2=O)cc1 | inconclusive: 33.1% |
| CN(c1ncnc(N)c1[N+](=O)[O-])C1CCCCC1 | active: 37.9% |
| Cc1ncc(CO)c(/C=N/NC(=S)Nc2ccc(F)cc2)c1O | inactive: -11% |
| Cc1ccccc1OCCSc1nnc(-c2ccncc2)n1C | inconclusive: 30.9% |
| Cc1cc(C(=O)Nc2ccc(Br)cc2)cs1 | inactive: -10% |
| COc1ccc(/C=C/C(=O)NC(=S)Nc2ccc(C(=O)O)cc2)cc1 | inactive: -5.35% |
| O=C(CSC1=NS(=O)(=O)c2ccccc2N1)NCCc1ccccc1 | inactive: -10.9% |
| Cc1ccc2nc(-c3ccc(O)cc3)oc2c1 | active: 31.8% |
| CC1CC(Nc2ccccc2)c2ccccc2N1C(=O)c1ccco1 (configuration not stated) | inconclusive: 30.6% |
| Cc1ccccc1-c1cc(C(=O)NCc2cccs2)nn1CC1CC(c2cccc([N+](=O)[O-])c2)=NO1 (configuration not stated) | inconclusive: 31% |
| Cc1nc2ccc(NC(=O)c3cc(S(=O)(=O)N4CCOCC4)ccc3C)cc2s1 | inactive: -15.7% |
| O=C1NC(=O)/C(=C/c2cccc([N+](=O)[O-])c2)N1 | inactive: 6.43% |
